# Laboratory results from the supplement of paper PMC10849652.
# Chains of the proteins cited; added tags and fusions are not shown. Lines headed by an entry give the natural chain unless they say otherwise; changes in a name come on top.
# UniProt O43716: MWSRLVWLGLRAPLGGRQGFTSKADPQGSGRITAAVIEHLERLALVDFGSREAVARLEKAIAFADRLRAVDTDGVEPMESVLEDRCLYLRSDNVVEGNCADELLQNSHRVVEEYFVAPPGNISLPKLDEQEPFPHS
# UniProt Q14697: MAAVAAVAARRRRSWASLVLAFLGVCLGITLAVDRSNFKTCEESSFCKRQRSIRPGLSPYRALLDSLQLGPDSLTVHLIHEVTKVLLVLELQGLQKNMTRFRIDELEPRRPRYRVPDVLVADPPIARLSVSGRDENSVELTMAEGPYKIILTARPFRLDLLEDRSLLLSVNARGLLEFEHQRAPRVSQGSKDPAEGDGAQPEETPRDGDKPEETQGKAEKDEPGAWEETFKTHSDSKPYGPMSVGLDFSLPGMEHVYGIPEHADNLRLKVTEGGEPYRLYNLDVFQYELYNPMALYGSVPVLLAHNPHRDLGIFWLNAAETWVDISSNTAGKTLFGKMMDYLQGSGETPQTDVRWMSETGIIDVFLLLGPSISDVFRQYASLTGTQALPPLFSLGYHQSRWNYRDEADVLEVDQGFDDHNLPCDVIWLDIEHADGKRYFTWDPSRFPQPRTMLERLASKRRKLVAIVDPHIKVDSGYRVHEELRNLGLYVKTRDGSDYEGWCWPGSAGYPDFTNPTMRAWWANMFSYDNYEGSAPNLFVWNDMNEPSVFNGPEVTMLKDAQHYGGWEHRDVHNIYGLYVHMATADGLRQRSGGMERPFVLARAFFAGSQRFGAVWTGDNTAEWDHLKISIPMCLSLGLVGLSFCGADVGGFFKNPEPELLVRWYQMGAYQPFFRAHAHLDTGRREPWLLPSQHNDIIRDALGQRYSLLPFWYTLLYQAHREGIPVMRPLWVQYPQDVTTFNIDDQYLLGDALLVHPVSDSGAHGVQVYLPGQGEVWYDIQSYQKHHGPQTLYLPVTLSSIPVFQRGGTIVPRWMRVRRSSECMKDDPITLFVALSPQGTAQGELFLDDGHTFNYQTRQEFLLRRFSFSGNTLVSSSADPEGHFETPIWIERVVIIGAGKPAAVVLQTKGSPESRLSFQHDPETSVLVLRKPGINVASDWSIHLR
# UniProt Q96I24: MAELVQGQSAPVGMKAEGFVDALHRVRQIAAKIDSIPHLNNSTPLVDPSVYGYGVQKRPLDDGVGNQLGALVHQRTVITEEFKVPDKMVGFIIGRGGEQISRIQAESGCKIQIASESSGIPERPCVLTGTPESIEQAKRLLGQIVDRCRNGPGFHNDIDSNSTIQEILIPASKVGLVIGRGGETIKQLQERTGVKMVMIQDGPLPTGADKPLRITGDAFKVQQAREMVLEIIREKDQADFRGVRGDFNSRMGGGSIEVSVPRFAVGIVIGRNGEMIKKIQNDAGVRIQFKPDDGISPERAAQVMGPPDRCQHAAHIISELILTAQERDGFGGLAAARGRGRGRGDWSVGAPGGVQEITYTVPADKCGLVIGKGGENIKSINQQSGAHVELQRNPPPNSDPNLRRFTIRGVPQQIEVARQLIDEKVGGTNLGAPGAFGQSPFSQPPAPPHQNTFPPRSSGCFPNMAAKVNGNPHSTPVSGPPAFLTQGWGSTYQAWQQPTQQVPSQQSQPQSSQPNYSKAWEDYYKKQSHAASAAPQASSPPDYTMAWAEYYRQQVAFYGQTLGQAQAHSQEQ
# UniProt Q10471: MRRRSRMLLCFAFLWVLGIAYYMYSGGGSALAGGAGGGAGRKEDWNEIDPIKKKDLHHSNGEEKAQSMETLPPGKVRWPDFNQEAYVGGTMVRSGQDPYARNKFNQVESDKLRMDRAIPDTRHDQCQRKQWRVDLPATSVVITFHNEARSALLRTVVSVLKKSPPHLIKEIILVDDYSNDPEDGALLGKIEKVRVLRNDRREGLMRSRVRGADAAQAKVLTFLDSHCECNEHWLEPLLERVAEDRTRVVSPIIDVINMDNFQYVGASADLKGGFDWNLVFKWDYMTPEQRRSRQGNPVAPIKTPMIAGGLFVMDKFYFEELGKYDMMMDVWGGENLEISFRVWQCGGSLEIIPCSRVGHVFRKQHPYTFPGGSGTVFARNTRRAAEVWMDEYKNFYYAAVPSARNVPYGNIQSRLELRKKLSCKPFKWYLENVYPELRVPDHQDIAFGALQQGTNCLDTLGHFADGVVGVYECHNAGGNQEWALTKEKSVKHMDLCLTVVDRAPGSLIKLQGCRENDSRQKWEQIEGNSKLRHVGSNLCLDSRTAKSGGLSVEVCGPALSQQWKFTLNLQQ
# UniProt Q9UP38, whole entry, looked up: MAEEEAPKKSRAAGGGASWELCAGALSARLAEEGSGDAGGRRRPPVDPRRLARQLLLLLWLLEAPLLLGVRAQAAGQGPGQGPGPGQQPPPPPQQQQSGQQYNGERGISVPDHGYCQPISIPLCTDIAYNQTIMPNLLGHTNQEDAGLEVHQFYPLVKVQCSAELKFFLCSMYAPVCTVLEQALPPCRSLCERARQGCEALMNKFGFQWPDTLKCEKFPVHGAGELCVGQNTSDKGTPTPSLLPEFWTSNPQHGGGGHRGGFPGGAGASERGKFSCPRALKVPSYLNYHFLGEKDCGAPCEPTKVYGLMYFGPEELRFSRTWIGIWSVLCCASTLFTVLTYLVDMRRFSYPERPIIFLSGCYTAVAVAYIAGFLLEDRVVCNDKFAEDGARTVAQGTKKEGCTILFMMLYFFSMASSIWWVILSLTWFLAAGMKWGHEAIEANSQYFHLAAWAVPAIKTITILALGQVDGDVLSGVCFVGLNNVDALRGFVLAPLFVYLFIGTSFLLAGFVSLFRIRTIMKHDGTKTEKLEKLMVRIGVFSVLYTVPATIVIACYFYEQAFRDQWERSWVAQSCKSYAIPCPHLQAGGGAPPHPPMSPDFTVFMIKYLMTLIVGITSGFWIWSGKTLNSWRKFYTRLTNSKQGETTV
# UniProt P09958, whole entry, looked up: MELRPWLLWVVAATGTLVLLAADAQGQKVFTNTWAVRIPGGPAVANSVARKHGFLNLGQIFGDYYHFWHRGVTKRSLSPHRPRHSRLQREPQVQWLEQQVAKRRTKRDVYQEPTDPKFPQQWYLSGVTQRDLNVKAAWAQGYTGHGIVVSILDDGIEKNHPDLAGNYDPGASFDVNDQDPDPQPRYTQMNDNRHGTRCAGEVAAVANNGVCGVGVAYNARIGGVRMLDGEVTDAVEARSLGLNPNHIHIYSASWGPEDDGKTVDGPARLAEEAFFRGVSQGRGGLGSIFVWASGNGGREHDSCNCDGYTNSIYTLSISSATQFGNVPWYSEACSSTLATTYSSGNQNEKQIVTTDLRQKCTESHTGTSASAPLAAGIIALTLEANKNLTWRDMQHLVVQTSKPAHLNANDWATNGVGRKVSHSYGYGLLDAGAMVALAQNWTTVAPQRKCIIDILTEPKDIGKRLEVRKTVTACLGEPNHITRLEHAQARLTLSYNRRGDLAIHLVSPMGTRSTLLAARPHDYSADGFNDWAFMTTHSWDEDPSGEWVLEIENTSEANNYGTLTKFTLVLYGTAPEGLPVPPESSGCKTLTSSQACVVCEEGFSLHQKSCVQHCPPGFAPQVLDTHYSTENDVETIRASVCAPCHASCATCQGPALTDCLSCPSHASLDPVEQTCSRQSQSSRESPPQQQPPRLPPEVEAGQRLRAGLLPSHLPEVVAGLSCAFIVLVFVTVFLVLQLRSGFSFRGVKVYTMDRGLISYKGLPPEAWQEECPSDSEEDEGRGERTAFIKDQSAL
# UniProt Q68DX3: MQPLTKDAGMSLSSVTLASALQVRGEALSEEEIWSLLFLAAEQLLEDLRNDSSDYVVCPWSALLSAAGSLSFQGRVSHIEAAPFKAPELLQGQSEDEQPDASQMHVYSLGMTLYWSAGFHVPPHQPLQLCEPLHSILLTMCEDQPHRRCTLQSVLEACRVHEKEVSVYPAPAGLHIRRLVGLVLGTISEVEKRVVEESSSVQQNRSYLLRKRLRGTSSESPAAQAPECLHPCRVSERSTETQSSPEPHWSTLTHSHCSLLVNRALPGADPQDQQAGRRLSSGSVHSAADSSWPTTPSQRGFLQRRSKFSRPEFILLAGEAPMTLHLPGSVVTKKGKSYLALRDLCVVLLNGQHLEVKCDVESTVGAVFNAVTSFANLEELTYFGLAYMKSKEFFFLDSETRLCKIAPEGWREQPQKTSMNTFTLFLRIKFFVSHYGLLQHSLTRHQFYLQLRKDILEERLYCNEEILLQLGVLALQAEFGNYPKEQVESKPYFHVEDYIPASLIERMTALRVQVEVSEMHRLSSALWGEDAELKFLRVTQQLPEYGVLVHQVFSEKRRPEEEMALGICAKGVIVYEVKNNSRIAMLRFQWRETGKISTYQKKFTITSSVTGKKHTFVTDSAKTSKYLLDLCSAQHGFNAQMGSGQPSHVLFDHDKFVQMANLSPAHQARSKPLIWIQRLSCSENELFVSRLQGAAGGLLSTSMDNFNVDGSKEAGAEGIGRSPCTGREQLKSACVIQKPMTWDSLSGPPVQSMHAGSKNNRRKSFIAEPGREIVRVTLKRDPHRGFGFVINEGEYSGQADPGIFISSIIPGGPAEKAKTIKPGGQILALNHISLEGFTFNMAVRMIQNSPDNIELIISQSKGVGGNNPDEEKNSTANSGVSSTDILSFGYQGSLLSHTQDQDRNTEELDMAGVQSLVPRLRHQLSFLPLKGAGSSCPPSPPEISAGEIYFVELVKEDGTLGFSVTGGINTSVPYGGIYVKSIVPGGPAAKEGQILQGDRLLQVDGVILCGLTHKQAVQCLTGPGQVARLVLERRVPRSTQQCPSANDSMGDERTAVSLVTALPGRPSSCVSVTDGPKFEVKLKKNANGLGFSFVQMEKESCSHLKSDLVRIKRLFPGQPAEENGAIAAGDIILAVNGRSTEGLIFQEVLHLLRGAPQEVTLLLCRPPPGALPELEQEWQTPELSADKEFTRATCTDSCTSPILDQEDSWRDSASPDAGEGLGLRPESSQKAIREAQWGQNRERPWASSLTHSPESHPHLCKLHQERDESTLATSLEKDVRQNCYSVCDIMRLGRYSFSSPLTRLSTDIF
# UniProt P24522: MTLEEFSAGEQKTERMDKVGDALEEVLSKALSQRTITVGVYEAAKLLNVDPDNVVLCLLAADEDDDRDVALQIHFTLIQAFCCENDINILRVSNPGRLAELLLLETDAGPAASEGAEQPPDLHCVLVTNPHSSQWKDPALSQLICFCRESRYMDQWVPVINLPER
# UniProt Q8NCL4: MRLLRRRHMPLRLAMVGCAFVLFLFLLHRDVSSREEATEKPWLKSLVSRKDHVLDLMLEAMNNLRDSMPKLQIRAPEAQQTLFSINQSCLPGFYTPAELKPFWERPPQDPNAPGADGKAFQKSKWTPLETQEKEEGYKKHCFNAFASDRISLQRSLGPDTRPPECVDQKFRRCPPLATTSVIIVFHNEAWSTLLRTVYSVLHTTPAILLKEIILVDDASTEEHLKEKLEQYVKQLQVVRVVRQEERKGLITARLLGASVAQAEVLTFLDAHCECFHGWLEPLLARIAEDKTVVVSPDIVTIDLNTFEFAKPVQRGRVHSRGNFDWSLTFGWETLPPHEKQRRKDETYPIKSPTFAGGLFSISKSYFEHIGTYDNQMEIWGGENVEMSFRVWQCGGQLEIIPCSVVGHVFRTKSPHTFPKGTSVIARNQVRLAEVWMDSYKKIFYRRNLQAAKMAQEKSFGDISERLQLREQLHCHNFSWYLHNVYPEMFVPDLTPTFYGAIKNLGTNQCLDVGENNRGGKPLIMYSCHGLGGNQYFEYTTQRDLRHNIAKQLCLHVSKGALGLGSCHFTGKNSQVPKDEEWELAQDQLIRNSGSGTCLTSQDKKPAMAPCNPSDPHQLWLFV
# UniProt P28676: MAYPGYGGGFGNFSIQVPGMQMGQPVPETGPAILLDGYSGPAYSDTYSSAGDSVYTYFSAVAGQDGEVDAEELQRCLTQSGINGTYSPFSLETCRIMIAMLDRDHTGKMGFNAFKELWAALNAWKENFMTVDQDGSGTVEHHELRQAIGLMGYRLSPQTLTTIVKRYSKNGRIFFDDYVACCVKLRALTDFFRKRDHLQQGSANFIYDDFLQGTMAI
# UniProt Q9NWZ8: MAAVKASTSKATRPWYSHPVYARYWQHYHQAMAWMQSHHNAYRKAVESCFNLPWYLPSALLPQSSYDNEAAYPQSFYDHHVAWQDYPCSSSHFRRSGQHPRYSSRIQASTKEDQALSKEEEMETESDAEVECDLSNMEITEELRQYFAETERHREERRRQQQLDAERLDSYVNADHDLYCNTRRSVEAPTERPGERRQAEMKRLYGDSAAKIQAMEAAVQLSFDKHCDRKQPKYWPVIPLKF
# Some of the results follow.
# What was measured:
# Experiment in all cases: log2 fold change, soluble protein after heating vs DMSO (PISA); higher = thermal stabilisation; K562 lysate, 10 uM; active = over 0.2 and 3.5 SD of the protein, either way, in both replicates (recomputed)
# [1] = compound: CN1CC[C@H](c2c(O)cc(O)c3c(=O)cc(-c4ccccc4Cl)oc23)[C@H](O)C1 [alvocidib]
# Summary of the method: (§1)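 K562 pellets were dounce-homogenised in PBS pH 7.4 with 1 mM MgCl2, and the crude extract at 1 mg/mL protein was treated with 10 μM compound for 30 min. Aliquots were heated for 3 min across 48°C-58°C, pooled, and brought to 0.5% NP-40 at 4°C; soluble protein was the supernatant after 21,000xg for 90 min. Soluble protein was quantified by TMTpro 16plex LC-MS/MS with channel sums equalised, and reported as log2 fold change in thermal stability against DMSO controls, with values from duplicates.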
# [2] = compound: CN1CCc2c(c3ccccc3n2Cc2ccc(C(=O)NO)cc2)C1 [Tubastatin A]
# Summary of the method: as §1
# [3] = compound: CNC(=O)C1=CC=CC=C1NC2=NC(=NC=C2Cl)NC3=C(C=C(C=C3)N4CCOCC4)OC
# Summary of the method: as §1
# [4] = compound: CNC(=O)c1ccc(Nc2ncc(C(F)(F)F)c(NCc3nccnc3N(C)S(C)(=O)=O)n2)cc1 [defactinib]
# Summary of the method: as §1
# [5] = compound: CNc1nc(-c2ccc3c(N)n[nH]c3c2)cc(N2C[C@@H](C(=O)NC3CCCCC3)CC[C@H]2C)n1
# Summary of the method: as §1
# [6] = compound: COC(=O)N[C@@H](C)CNc1nccc(-c2cn(C(C)C)nc2-c2cc(Cl)cc(NS(C)(=O)=O)c2F)n1 [encorafenib]
# Summary of the method: as §1
# [7] = compound: COC(=O)[C@H](CCSC)NC(=O)C1=C(C=C(C=C1)NC[C@H](CS)N)C2=CC=CC=C2
# Summary of the method: as §1
# [8] = compound: COc1cc(Nc2ncc3c(n2)-c2ccc(Cl)cc2C(c2c(F)cccc2OC)=NC3)ccc1C(=O)O [alisertib]
# Summary of the method: as §1
# [9] = compound: COc1cc2nc(-c3cc(F)ccc3O)nc(N[C@@H]3CNC[C@H]3C(C)(C)O)c2cc1OC
# Summary of the method: as §1
# [10] = compound: COc1cc2ncnc(Nc3ccc(F)c(Cl)c3)c2cc1OCCCN1CCOCC1 [gefitinib]
# Summary of the method: as §1
# [11] = compound: CS(=O)(=O)CCNCc1ccc(-c2ccc3ncnc(Nc4ccc(OCc5cccc(F)c5)c(Cl)c4)c3c2)o1 [lapatinib]
# Summary of the method: as §1
# [12] = compound: C[C@@H](Oc1cc(-c2cnn(C3CCNCC3)c2)cnc1N)c1c(Cl)ccc(F)c1Cl [crizotinib]
# Summary of the method: as §1
# [13] = compound: C[C@H](C1=CC=C(C=C1)C(=O)NC2=C3C=CNC3=NC=C2)N
# Summary of the method: as §1
# [14] = compound: C[C@H](Nc1ncnc2nc[nH]c12)c1cc2cccc(Cl)c2c(=O)n1-c1ccccc1 [duvelisib]
# Summary of the method: as §1
# [15] = compound: Cc1cc(Nc2cc(CN3CCOCC3)c3nc(C)c(Cc4ccc(Cl)cc4F)n3n2)n[nH]1 [gandotinib]
# Summary of the method: as §1
# [16] = compound: Cc1cc(Nc2cc(N3CCN(C)CC3)nc(Sc3ccc(NC(=O)C4CC4)cc3)n2)n[nH]1 [tozasertib]
# Summary of the method: as §1
# [17] = compound: Cc1ccc(-n2nc(C(C)(C)C)cc2NC(=O)Nc2ccc(OCCN3CCOCC3)c3ccccc23)cc1 [doramapimod]
# Summary of the method: as §1
# [18] = compound: Cc1cccc(CC(=O)N2CCc3c2ccc(-c2cn(C)c4ncnc(N)c24)c3F)n1
# Summary of the method: as §1
# [19] = compound: CS(=O)(=O)N1CCN(Cc2cc3nc(-c4cccc5[nH]ncc45)nc(N4CCOCC4)c3s2)CC1 [pictilisib]
# Summary of the method: as §1
# [20] = compound: Cc1ccc(NC(=O)c2ccc(CN3CC[C@H](N(C)C)C3)c(C(F)(F)F)c2)cc1Nc1nccc(-c2cncnc2)n1 [bafetinib]
# Summary of the method: as §1
Target,log2 fold change [1],log2 fold change [2],log2 fold change [3],log2 fold change [4],log2 fold change [5],log2 fold change [6],log2 fold change [7],log2 fold change [8],log2 fold change [9],log2 fold change [10],log2 fold change [11],log2 fold change [12],log2 fold change [13],log2 fold change [14],log2 fold change [15],log2 fold change [16],log2 fold change [17],log2 fold change [18],log2 fold change [19],log2 fold change [20]
GATC (UniProt O43716),inactive: -0.018,inactive: 0.055,inactive: -0.003,inactive: 0.153,inactive: 0.066,inactive: 0.006,inactive: 0.03,inactive: 0.001,inactive: -0.078,inactive: -0.09,inactive: 0.007,inactive: 0.105,inactive: 0.117,inactive: 0.051,inactive: -0.045,inactive: -0.03,inactive: 0.081,inactive: -0.019,–,–
GANAB isoform 2 (UniProt Q14697),inactive: -0.013,inactive: 0.003,inactive: -0.009,inactive: -0.002,inactive: 0.004,inactive: 0.014,inactive: 0.013,inactive: -0.004,inactive: 0.015,inactive: 0.016,inactive: -0.007,inactive: 0.01,inactive: -0.005,inactive: 0.022,inactive: -0.001,inactive: -0.017,inactive: -0.035,inactive: 0.008,inactive: -0.011,inactive: -0.011
FUBP3 (UniProt Q96I24),inactive: 0.008,inactive: -0.101,inactive: -0.033,inactive: 0.005,inactive: -0.05,inactive: 0.065,inactive: -0.146,inactive: 0.048,inactive: 0.001,inactive: -0.033,inactive: 0.02,inactive: 0.005,inactive: 0.036,inactive: -0.022,inactive: 0.019,inactive: 0.033,inactive: -0.034,inactive: -0.05,inactive: -0.109,inactive: -0.055
GALNT2 (UniProt Q10471),inactive: -0.069,inactive: 0.073,inactive: -0.004,inactive: 0.008,inactive: -0.057,inactive: 0.048,inactive: -0.047,inactive: 0.028,inactive: -0.021,inactive: -0.021,inactive: -0.016,inactive: 0.009,inactive: -0.074,inactive: -0.044,active: 0.272,inactive: 0.047,inactive: -0.014,inactive: 0.18,inactive: -0.039,inactive: -0.002
GDI2 (UniProt Q5SX86),inactive: -0.101,inactive: 0.214,inactive: -0.083,inactive: 0.123,inactive: -0.157,–,–,inactive: -0.228,inactive: 0.056,inactive: -0.253,inactive: -0.101,–,inactive: -0.205,inactive: 0.056,inactive: -0.125,–,–,inactive: 0.076,inactive: 0.023,inactive: -0.276
FZD1 (UniProt Q9UP38),inactive: -0.064,inactive: 0.071,–,–,–,–,–,inactive: 0.167,–,inactive: 0.04,–,inactive: 0.095,inactive: 0.04,–,inactive: -0.018,–,inactive: 0.068,inactive: 0.066,–,–
GBP2 (UniProt P32456),inactive: -0.015,inactive: -0.114,inactive: 0.126,–,inactive: 0.176,inactive: 0.076,inactive: 0.008,–,inactive: -0.115,–,inactive: 0.04,inactive: -0.097,inactive: -0.29,inactive: -0.033,inactive: 0.019,inactive: 0.055,inactive: 0.068,inactive: 0.248,–,–
FURIN (UniProt P09958),inactive: -0.04,inactive: 0.112,inactive: -0.051,inactive: 0.008,inactive: 0.031,inactive: 0.031,inactive: 0.011,inactive: 0.033,–,inactive: 0.344,–,inactive: 0.006,inactive: 0.032,inactive: -0.009,inactive: 0.042,inactive: 0.082,inactive: 0.13,inactive: -0.011,inactive: -0.02,inactive: -0.044
GATB (UniProt O75879),inactive: -0.028,inactive: -0.128,–,inactive: 0.147,inactive: -0.011,–,–,inactive: 0.052,inactive: -0.075,inactive: -0.003,inactive: -0.169,–,inactive: 0.011,inactive: -0.087,inactive: 0.001,–,–,inactive: 0.128,–,–
GART (UniProt C9JZG2),inactive: -0.071,inactive: 0.018,–,–,–,inactive: 0.038,inactive: 0.088,inactive: 0.121,inactive: -0.056,inactive: 0.281,inactive: -0.131,inactive: -0.245,inactive: -0.371,–,inactive: 0.02,inactive: 0.037,inactive: 0.166,inactive: 0.19,inactive: 0.019,inactive: 0.026
FRMPD2 (UniProt Q68DX3),inactive: -0.126,–,inactive: 0.049,inactive: -0.093,–,inactive: 0.106,inactive: 0,inactive: 0.041,inactive: 0.086,inactive: -0.069,inactive: -0.084,–,inactive: -0.407,–,inactive: -0.509,inactive: 0.122,–,inactive: 0.087,–,–
GADD45A (UniProt P24522),inactive: 0.112,inactive: 0,–,–,–,–,–,inactive: -0.087,–,inactive: 0.032,–,inactive: -0.057,inactive: 0.164,–,inactive: 0.204,–,inactive: 0.015,inactive: -0.227,–,–
GALNT6 (UniProt Q8NCL4),inactive: -0.041,–,inactive: 0.075,inactive: -0.009,inactive: -0.063,inactive: 0.055,inactive: -0.078,inactive: -0.119,inactive: -0.073,inactive: 0.005,inactive: 0.086,inactive: -0.146,inactive: -0.166,inactive: -0.041,inactive: -0.033,inactive: 0.031,inactive: -0.017,inactive: 0.095,inactive: -0.157,inactive: -0.064
GCA (UniProt P28676),inactive: -0.016,–,inactive: -0.035,–,–,–,–,inactive: -0.038,inactive: -0.253,inactive: -0.197,inactive: 0.016,–,inactive: -0.091,–,inactive: -0.073,–,–,inactive: 0.057,–,–
FYN (UniProt P06241),inactive: -0.078,inactive: 0.03,inactive: -0.009,inactive: 0.038,inactive: -0.069,inactive: 0.092,inactive: -0.121,–,inactive: 0.005,–,inactive: 0.007,inactive: 0.12,inactive: -0.092,inactive: -0.019,active: 0.422,inactive: 0.054,inactive: -0.04,inactive: -0.057,inactive: -0.201,inactive: 0.198
GEMIN8 (UniProt Q9NWZ8),inactive: 0.017,inactive: -0.027,inactive: -0.005,inactive: 0.083,–,inactive: 0.049,inactive: -0.147,inactive: 0.017,inactive: 0.123,inactive: -0.049,inactive: -0.071,inactive: 0.011,inactive: 0.066,–,inactive: -0.166,inactive: -0.352,inactive: -0.028,inactive: -0.024,inactive: -0.009,inactive: -0.043
GABPB1 isoform 3 (UniProt Q06547),inactive: -0.013,active: -0.299,inactive: -0.055,inactive: -0.025,inactive: -0.039,inactive: -0.006,inactive: 0.099,–,inactive: 0.016,–,inactive: -0.057,inactive: 0.001,inactive: -0.007,inactive: 0.068,inactive: 0,inactive: -0.001,inactive: -0.029,inactive: 0.043,inactive: -0.086,inactive: -0.149
GBA2 (UniProt Q9HCG7),inactive: -0.046,inactive: -0.032,inactive: 0.073,–,inactive: -0.098,inactive: -0.052,inactive: 0.079,inactive: -0.004,inactive: 0.013,inactive: 0.2,inactive: -0.062,inactive: 0.014,inactive: -0.094,inactive: 0.06,inactive: -0.009,inactive: -0.138,inactive: 0.055,inactive: 0.054,inactive: -0.012,inactive: -0.199

# A different layout for some results above:
Target | log2 fold change [1] | log2 fold change [2] | log2 fold change [3] | log2 fold change [4] | log2 fold change [5] | log2 fold change [6] | log2 fold change [7] | log2 fold change [8] | log2 fold change [9] | log2 fold change [10] | log2 fold change [11] | log2 fold change [12] | log2 fold change [13] | log2 fold change [14] | log2 fold change [15] | log2 fold change [16] | log2 fold change [17] | log2 fold change [18] | log2 fold change [19] | log2 fold change [20]
GALNT2 (UniProt Q10471) | inactive: -0.069 | inactive: 0.073 | inactive: -0.004 | inactive: 0.008 | inactive: -0.057 | inactive: 0.048 | inactive: -0.047 | inactive: 0.028 | inactive: -0.021 | inactive: -0.021 | inactive: -0.016 | inactive: 0.009 | inactive: -0.074 | inactive: -0.044 | active: 0.272 | inactive: 0.047 | inactive: -0.014 | inactive: 0.18 | inactive: -0.039 | inactive: -0.002
GCA (UniProt P28676) | inactive: -0.016 | – | inactive: -0.035 | – | – | – | – | inactive: -0.038 | inactive: -0.253 | inactive: -0.197 | inactive: 0.016 | – | inactive: -0.091 | – | inactive: -0.073 | – | – | inactive: 0.057 | – | –
